pKi: −log10 of the molar value. Where only a bound is given, the exact number is not on record here.

Protein sequences, listed by entry. Tags and fused reporters are not part of them.
UniProt P61169, whole entry: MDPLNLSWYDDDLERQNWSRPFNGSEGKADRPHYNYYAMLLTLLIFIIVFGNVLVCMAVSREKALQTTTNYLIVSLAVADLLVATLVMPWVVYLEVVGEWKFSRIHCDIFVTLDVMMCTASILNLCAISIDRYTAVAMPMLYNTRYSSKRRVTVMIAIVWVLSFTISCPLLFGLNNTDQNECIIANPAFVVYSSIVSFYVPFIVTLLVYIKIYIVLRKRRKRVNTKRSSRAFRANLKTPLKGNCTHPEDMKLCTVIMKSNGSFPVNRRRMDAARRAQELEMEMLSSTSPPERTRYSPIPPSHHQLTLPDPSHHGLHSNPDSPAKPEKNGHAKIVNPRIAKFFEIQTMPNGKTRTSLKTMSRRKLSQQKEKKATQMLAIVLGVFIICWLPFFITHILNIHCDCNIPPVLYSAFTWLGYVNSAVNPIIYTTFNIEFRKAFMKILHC

This assay addresses T1, dopamine D2 receptor (Rat Striatal Membranes) (Rattus norvegicus, UniProt P61169).
T1 construct: Rat tissue homogenates were prepared as described previously; from tissue; host or cells: rat striatal membranes (tissue homogenate)
Kind of assay: Competition for ^125 I-FIDA-1 binding to rat striatal membranes. The note with it: 15 min at 37° C., nonspecific binding with 10 μM (+)butaclamol, read-out: Ki, inhibition constant on ^125 I-FIDA-1 binding. The protocol: Rat tissue homogenates were prepared as described previously. Murphy, R. A., et al., J. Med. Chem. 33, 171-178 (1990). The binding assays were performed by incubating 50 μL of tissue preparations containing 40-60 μg of protein with appropriate amounts of ^125 I-labeled ligand and competitors in a total volume of 0.2 mL of the assay buffer. After an incubation period of 15 min at 37° C. (with stirring), the samples were rapidly filtered in a cell harvester (Brandel M-24R) under vacuum through Whatman GF/B glass-fiber filters pretreated with […] protamine base and washed with 3×5 mL of cold (4° C.) 50 mM Tris-HCI buffer, pH 7.4. The nonspecific binding was obtained in the presence of 10 μM (+)butaclamol. The filters were counted in a γ counter (Beckman 5500) at an efficiency of 70%. Both Scatchard and competition experiments were analyzed with the iterative nonlinear least squares curve-fitting program LIGAND.

Turning to `CC(C)NCC(O)COc1cccc2ccccc12` (racemic) [(±) propranolol], the pKi was < 5.00.

The pKi is the Ki on a negative log10 scale, so that one unit is a factor of ten.

Values taken from patent US5446147A (Trustees of the University of Pennsylvania, priority 1992, dated 1995).
